Inconclusive results, whose numbers are uncertain, are shown with a selection of clear calls. For part of these data: Potencies of inconclusive entries are doubtful fits and often do not repeat. The source made the active and inactive calls. How the source made its calls: active means hit-call score of the fitted dose curve at least 0.9, where 1 is the maximum; inconclusive means response in the unintended direction; inactive means score below 0.9.
Legend:
[1] = biological target: Estrogen receptor (Homo sapiens) (UniProt P03372); experiment: NVS_NR_hER: NovaScreen (NVS) Nuclear Receptor Binding Assay for human Estrogen Receptor (ER) (AID 2283348)
How it was run: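 Cell-free radioligand binding with protein extracted from MCF7 cells; scintillation counting 18 hours after dosing. Loss of signal versus DMSO baseline read as displacement; primary single-concentration screen at 25 uM in duplicate, actives retested in concentration series.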

Amino acid sequences for entries named in this document (tags omitted). A change or cut given only in a name is not applied to a line headed by its entry.
UniProt P03372, whole entry, looked up: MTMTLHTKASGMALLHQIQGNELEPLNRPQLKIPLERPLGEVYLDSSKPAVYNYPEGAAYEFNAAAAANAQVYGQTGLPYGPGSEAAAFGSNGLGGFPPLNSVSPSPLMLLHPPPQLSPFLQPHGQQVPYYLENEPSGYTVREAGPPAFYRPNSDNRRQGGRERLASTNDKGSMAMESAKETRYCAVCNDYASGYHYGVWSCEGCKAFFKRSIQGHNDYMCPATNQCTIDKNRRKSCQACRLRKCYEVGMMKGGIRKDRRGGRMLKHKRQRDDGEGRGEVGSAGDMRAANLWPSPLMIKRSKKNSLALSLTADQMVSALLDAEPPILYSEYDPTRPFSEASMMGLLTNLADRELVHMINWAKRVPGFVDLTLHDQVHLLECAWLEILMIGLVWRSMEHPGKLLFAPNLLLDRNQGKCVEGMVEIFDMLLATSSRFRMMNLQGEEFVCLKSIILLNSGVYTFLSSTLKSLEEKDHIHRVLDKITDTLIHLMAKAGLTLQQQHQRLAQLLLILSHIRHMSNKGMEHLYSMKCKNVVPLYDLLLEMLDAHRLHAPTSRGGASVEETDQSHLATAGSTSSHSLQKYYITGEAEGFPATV
UniProt P19793: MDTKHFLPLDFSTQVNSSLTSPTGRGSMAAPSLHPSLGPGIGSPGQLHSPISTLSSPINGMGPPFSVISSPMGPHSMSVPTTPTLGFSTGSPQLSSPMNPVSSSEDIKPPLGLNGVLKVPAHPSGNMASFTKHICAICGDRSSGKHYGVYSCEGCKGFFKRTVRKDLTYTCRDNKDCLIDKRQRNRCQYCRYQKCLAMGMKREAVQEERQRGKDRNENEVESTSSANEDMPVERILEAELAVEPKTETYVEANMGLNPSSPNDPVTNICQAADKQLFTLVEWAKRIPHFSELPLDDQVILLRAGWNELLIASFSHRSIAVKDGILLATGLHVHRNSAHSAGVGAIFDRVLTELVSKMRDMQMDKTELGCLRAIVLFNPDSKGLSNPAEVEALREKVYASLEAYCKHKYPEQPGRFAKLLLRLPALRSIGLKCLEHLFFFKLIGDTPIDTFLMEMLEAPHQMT
UniProt P04637, whole entry, looked up: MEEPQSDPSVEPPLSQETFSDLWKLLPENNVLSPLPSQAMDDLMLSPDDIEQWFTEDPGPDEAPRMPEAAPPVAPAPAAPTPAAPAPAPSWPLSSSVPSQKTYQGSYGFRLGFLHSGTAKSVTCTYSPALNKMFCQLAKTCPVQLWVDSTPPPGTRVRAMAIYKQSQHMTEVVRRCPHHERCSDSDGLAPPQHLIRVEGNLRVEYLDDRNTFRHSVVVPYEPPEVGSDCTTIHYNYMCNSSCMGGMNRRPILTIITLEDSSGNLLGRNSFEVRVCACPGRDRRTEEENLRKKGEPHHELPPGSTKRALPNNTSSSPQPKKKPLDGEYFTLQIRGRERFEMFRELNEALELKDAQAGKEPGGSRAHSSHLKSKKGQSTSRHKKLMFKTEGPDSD

[2] = biological target: Retinoic acid receptor RXR-alpha (Homo sapiens) (UniProt P19793); experiment: OT_NURR1_NURR1RXRa_0480: Odyssey Thera (OT) 8-hour HEK293T Protein Complementation Assay for Nurr1/retinoid X receptor (RXR) (AID 2283385)
How it was run: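 HEK293T cells expressing Nurr1 and RXRα fused to reporter fragments were dosed with compound for 8 hours. Complex formation was read as fluorescence intensity and analysed as gain of signal against DMSO as baseline.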

[3] = biological target: Retinoic acid receptor RXR-alpha (Homo sapiens) (UniProt P19793); experiment: OT_NURR1_NURR1RXRa_1440: Odyssey Thera (OT) 24-hour HEK293T Protein Complementation Assay for Nurr1/retinoid X receptor (RXR) (AID 2283386)
How it was run: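 HEK293T cells were dosed with compound and read 24 h later by fluorescence intensity in a protein-fragment complementation format, where Nurr1–RXRα interaction reconstitutes a split reporter. Activity was fitted as gain of signal relative to DMSO baseline.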

[4] = TOX21_p53_BLA_p3_viability: Viability Assessment in the Tox21 HCT-116 p53 Agonism Beta-lactamase Assay, Phase 3 (AID 2283593);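 further: cells exposed to compound for 16 h before reading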
How it was run: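 HCT-116 cells (4000/well) rested 5 h at 37C, then got DMSO compounds by pin tool (217-fold dilution) for 16 h at 37C, 5% CO2. After the bla read, CellTiter-Glo was added and luminescence read at 30 min, room temperature.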

[5] = biological target: Cellular tumor antigen p53 (Homo sapiens) (UniProt P04637); experiment: TOX21_p53_BLA_p3_ratio: Tox21 HCT-116 p53 Agonism Beta-lactamase Assay, Ratio, Phase 3 (AID 2283596)
How it was run: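 HCT116 p53-bla cells (4000/well) given compound in DMSO (217-fold dilution) after 5 h, incubated 16 h at 37C. CCF4-AM substrate 2 h at room temperature; 460/530 nm emission ratio, gain fitted against DMSO.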

[6] = TOX21_p53_BLA_p4_viability: Viability Assessment in the Tox21 HCT-116 p53 Agonism Beta-lactamase Assay, Phase 4 (AID 2283597);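 further: hits lower the luminescence signal meaning cytotoxicity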
How it was run: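 Cells plated, 5 h pre-incubation; DMSO compounds pinned (217-fold dilution); 16 h, 37C/5% CO2; CCF4-AM 2 h RT; CellTiter-Glo 30 min RT; luminescence read.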

[7] = biological target: Cellular tumor antigen p53 (Homo sapiens) (UniProt P04637); experiment: TOX21_p53_BLA_p4_ratio: Tox21 HCT-116 p53 Agonism Beta-lactamase Assay, Ratio, Phase 4 (AID 2283601)
How it was run: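 HCT116 cells carrying an inducible beta-lactamase reporter were plated at 4000 cells/well, rested 5 h, then exposed to compounds in DMSO (217-fold dilution) for 16 h at 37C. CCF4-AM substrate was loaded 2 h at room temperature; 460/530 nm emission ratio scored gain-of-signal versus DMSO.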

[8] = Tanguay_ZF_120hpf_TRUN_legacy: (Legacy) Oregon State University Tanguay Lab 120 Hour Post-fertilization zebrafish Assay for Truncated Body (AID 2283655)
How it was run: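 Truncated body is recorded as a binary endpoint at 120 hpf by brightfield imaging of wild-type 5D larvae. Exposure runs statically from 6 hpf at 28C with 0.64% DMSO; embryos dying earlier are not scored.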

[9] = Tanguay_ZF_120hpf_NC_legacy: (Legacy) Oregon State University Tanguay Lab 120 Hour Post-fertilization zebrafish Assay for Notochord and Tail Malformation (AID 2283656)
How it was run: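 Dechorionated 5D zebrafish, 1/well from 6 hpf; static exposure to 120 hpf, 28C, sealed, dark; final DMSO 0.64% v/v. NC scored binary (present/absent); dead embryos not scored. Fit vs DMSO baseline, gain direction.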

[10] = CCTE_Harrill_HTTr_CellCount_MCF7: CCTE's Cell Proliferation Assessment for the High-Throughput Transcriptomics (HTTr) Platform, Harrill Lab (AID 2284012);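 further: cells exposed to compound for six hours; intended direction is loss of nuclei count meaning fewer cells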
How it was run: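 MCF-7 cells were exposed for 6 h to an eight-point dilution series; Hoechst-labeled nuclei were counted by high content imaging. Curves were fitted bidirectionally against DMSO as negative control and baseline, with signal loss indicating reduced cell count.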

[11] = CCTE_Deisenroth_AIME_384WELL_CTox_Inactive: Cytotoxicity Assessment (CTOX) in CCTE's 384-well Estrogen Receptor Transactivation Assay without AIME metabolic competence (metabolism negative), Deisenroth Lab (AID 2284039);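 further: cell viability via live-cell protease substrate cleaved to fluorescent probe; cells exposed 24 h to medium preincubated 2 h with alginate-water beads without S9; loss of fluorescence signal means loss of viability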
How it was run: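 VM7Luc4E2 cells, metabolism-negative arm: test chemicals (0.002–200 uM, 10 points) pre-incubated 2 h with alginate-water microspheres, then medium transferred to cells for 24 h. Viability read as protease-substrate cleavage to fluorescent probe; loss-of-signal, bidirectional fitting.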

[12] = CCTE_Shafer_MEA_dev_active_electrodes_number: CCTE's Neural Network Formation Assay for Number of Active Electrodes, Shafer Lab (AID 2284040)
How it was run: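 Rat cortical primary cultures, 1.5 x 10^5 cells/well, PEI-coated MEA, laminin drop. Continuous exposure DIV 0–12; full media/compound change DIV 5, 9. Readout: electrodes with mean firing ≥5 spikes/min; AUC across days; loss vs DMSO.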

[13] = CCTE_Shafer_MEA_dev_bursting_electrodes_number: CCTE's Neural Network Formation Assay for Number of Bursting Electrodes, Shafer Lab (AID 2284043);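 further: potency is for loss of bursting electrodes relative to DMSO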
How it was run: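 Primary rat cortical neurons were cultured on PEI-coated 48-well MEA plates (16 electrodes/well) and exposed from plating through day 12, with compound renewed at feeds on DIV 5 and 9. Electrodes bursting ≥1 per 2 min were counted on DIV 5, 7, 9, 12; trapezoidal AUC taken.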

[14] = CCTE_Shafer_MEA_dev_LDH: CCTE's Lactate Dehydrogenase Assay for Cytotoxicity in the Neural Network Formation Assay, Shafer Lab (AID 2284068);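 further: exposure for twelve days from plating with re-dosing on DIV 5 and 9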
How it was run: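 Primary rat cortical neurons were plated on PEI/laminin MEA plates and exposed from day 0 for twelve days, with compound renewed at DIV 5 and 9. Cytotoxicity was determined by spectrophotometric LDH assay relative to DMSO.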

[15] = CCTE_Mundy_HCI_hNP1_Pro_ResponderAvgInten: CCTE's Proliferation Assay in human neuroprogenitor cells, Mundy Lab (AID 2284224);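 further: human neural progenitor cells hNP1 derived from WA09 embryonic stem cells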
How it was run: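 Human neuroprogenitors (hNP1, WA09 lineage) receive test chemical after 40 to 44 hours of attachment. A four-hour BrdU pulse begins twenty hours later, followed by fixation and high content imaging; signal is referenced to DMSO controls.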

Measured: AC50

[O-][Cl+]O
inconclusive: [2] 1.46 µM | [3] 11.9 µM | [4] 46.1 µM | [5] 46.1 µM | [6] 46.1 µM | [7] 46.1 µM | [8] 4.93 µM | [9] 56.2 µM | [10] 50 µM | [13] 15 µM | [15] 0.769 µM
inactive: [1] | [11] | [12] | [14]

From PubChem BioAssay (EPA / NIEHS)
